Measured values from PubChem BioAssay AID1671190 (National Center for Advancing Translational Sciences (NCATS), 2021).
Where “and” joins values, the source holds several entries; their conditions need not be identical. Equal values may be shown once. The campaign covered roughly 580,000 compounds. About 6,100 (1.1%) were called active. The shares of active, inactive and inconclusive entries below differ from those in the screen. Calls follow the shape of the dose curve; as a rule, active = well fitted inhibition curve with a large enough effect; inconclusive = small, poorly fitted or top-dose-only effect, or another doubt; inactive = no such curve, though single readings can be large or run the other way. Potencies of inconclusive entries are doubtful fits and often do not repeat.
% is scaled to controls: 0 for no effect and ±100 for the full control effect; potency is read from the fitted curve at half-maximal effect.

Amino acid sequences for entries named in this document (tags omitted). A change or cut given only in a name is not applied to a line headed by its entry.
UniProt P18054: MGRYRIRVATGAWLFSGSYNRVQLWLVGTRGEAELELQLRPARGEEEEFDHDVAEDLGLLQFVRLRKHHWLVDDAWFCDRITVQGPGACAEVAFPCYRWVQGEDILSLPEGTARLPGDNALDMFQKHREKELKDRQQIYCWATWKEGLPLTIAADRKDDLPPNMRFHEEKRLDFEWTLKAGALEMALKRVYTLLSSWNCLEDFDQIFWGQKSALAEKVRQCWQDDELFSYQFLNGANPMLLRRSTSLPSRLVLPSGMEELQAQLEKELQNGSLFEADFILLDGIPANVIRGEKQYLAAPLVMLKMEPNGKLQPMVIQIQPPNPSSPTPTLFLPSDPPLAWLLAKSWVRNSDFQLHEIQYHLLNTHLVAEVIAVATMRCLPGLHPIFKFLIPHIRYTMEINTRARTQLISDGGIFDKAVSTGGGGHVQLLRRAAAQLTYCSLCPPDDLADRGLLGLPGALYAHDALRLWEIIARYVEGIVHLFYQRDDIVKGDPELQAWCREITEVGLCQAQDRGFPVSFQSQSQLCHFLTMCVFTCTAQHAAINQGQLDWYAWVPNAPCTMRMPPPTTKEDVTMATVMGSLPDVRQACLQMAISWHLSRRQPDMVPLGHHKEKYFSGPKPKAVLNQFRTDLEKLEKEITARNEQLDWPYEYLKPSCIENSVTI

Each compound was assayed against Polyunsaturated fatty acid lipoxygenase ALOX12 (Homo sapiens) (UniProt P18054) (assay: Primary qHTS assay for inhibitors of human arachidonate 12S-lipoxygenase (ALOX12): Round 2). Details: purified 12hLO, xylenol orange hydroperoxide absorbance; activity change, negative = inhibition: at 108 µM (top of the series) unless noted.
Summary of the method: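 Purified human 12hLO at 150 nM in 25 mM Hepes, 0.01% Triton X-100, pH 7.0, preincubated 15 min at room temperature with compound. Reaction started with 40 uM arachidonic acid, 30 min at room temperature. Hydroperoxide measured by Fe-xylenol orange, 573/405 nm absorbance ratio.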
With `O=C(NCc1nc2ccccc2[nH]1)C1=C[C@@H](C2CCCCC2)C[C@@H](OCc2ccc(CO)cc2)O1` the “activity change, negative = inhibition” value was inactive: 12.4%.
In the case of `N#CCCN1CCN(c2ccc(NS(=O)(=O)c3ccc(F)cc3Cl)c(C(=O)O)c2)CC1`, the Potency is reported as inconclusive: 15.8 µM [inhibitor, full curve].
For `CN(C)Cc1c(C(=O)N/N=C/c2ccccc2OCc2c(F)cccc2Cl)nnn1-c1nonc1N`, the “activity change, negative = inhibition” value was inactive: 6.7%.
`Cc1cccc(Cn2c(C)c(C)c3cc(C(=O)NCCN4CCOCC4)ccc32)c1` was tested, and the Potency was inconclusive: 79.4 µM [inhibitor, partial curve, poor fit].
For `COc1cccc(-c2cc(N3CCN(C(=O)c4ccoc4)CC3)n3nc(-c4cccc(Cl)c4)cc3n2)c1`, the Potency was inconclusive: 44.7 µM [inhibitor, partial curve, poor fit].
For `COC(=O)c1cc(NC(=S)Nc2cc(Cl)cc(Cl)c2)cc(C(=O)OC)c1`, the Potency was inconclusive: 44.7 µM [inhibitor, partial curve, poor fit].
With `O=C(COC(=O)c1cc2ccccc2oc1=O)Nc1cccc2ccccc12` the Potency was inconclusive: 39.8 µM [inhibitor, partial curve, poor fit].
For `N#Cc1c(NC(=O)CSc2ncccn2)oc(-c2ccccc2)c1-c1ccccc1`, the Potency was inconclusive: 112 µM [inhibitor, single point].
For `Cc1ccc(-n2c(C3CCN(C(=O)c4ccc(Cl)cc4)CC3)n[nH]c2=O)cc1`, the Potency was inconclusive: 11.2 µM [inhibitor, partial curve, poor fit].
For `Cc1cc(C)nc(Nc2n[nH]c(-c3ccc(N)cc3)n2)n1`, the “activity change, negative = inhibition” value was inactive: 0%.
For `CC(=O)c1ccc(OCC(=O)NC(=O)NC2CCCCC2)cc1`, the Potency was inconclusive: 112 µM [inhibitor, partial curve, poor fit].
`CC1(c2ccccc2)NC(=O)N(NC(=O)c2n[nH]c(=O)c3ccccc23)C1=O` (stereo not given) was tested, and the Potency was inconclusive: 0.355 µM [inhibitor, full curve, poor fit].
`COc1ccc2nc3n(c2c1)[C@@H](CNC(=O)c1ccccn1)COC3` was tested, and the “activity change, negative = inhibition” value was inactive: 34.9% [at 176 µM].
For `O=C(CCNC(=O)NCc1nc2c(cnn2-c2ccccc2)c(=O)[nH]1)NCc1ccccc1`, the Potency was inconclusive: 126 µM [inhibitor, partial curve, poor fit].
For `C=CCNc1nc(Cl)nc(Nc2ccc(OC)cc2)n1`, the Potency was inconclusive: 5.01 µM [inhibitor, full curve, poor fit].
For `Cc1ccc(NC(=O)CN2C(=S)NC(C)(C)CC2C)cc1Cl` (stereo not given), the Potency was inconclusive: 79.4 µM [inhibitor, partial curve, poor fit].
For `O=C(O)c1cccc(Sc2cc(Cl)ccc2C(=O)O)c1`, the Potency was inconclusive: 28.2 µM [inhibitor, partial curve, poor fit].
`CN(C)CCOC(=O)c1ccc2[nH]c3c(c2c1)CSCC3` was tested, and the Potency was inconclusive: 31.6 µM [inhibitor, single point].
For `Cc1cc(CN2CCC(N3CCOCC3=O)CC2)no1`, the Potency was inconclusive: 141 µM [inhibitor, partial curve, poor fit].
`N#CC(C#N)=Cc1cc2ccccc2nc1N1CCCCC1` was tested, and the “activity change, negative = inhibition” value was inactive: -19.9%.
With `O=C(O)CCCC(=O)N1CCC(Cc2ccccc2)CC1` the “activity change, negative = inhibition” value was inactive: 4.21%.
With `Cc1cc(CNC(=O)c2ccc3c(c2)OCO3)c2ccccc2n1` the Potency was inconclusive: 35.5 µM [inhibitor, partial curve] and inconclusive: 5.01 µM [inhibitor, full curve, poor fit].
`Cc1ccc(NCc2nnc(SCC(N)=O)o2)c(C)c1` was tested, and the “activity change, negative = inhibition” value was inactive: 0.523%.
With `Nc1c(C=C2C=CC(=O)C=C2)c(=O)nc2sc(CC(=O)N3CCCCC3)nn12` the Potency was inconclusive: 3.98 µM [inhibitor, full curve, poor fit].
With `CC(C)n1c(NCc2cc(Cl)ccc2O)nc2ccccc21` the Potency was inconclusive: 141 µM [inhibitor, single point].
For `Cc1cc(Br)ccc1NC(=O)C(NS(=O)(=O)c1cccs1)c1ccccc1` (stereo not given), the Potency was inconclusive: 4.47 µM [inhibitor, full curve, poor fit].
In the case of `COCCN(CCOC)CC(=O)OC`, the “activity change, negative = inhibition” value is reported as inactive: -57.3%.
For `COc1cc2nc(N3CCN(C(=O)C4COc5ccccc5O4)CC3)nc(N)c2cc1OC` (stereo not given), the Potency was inconclusive: 35.5 µM [inhibitor, single point].
`O=C(c1ccco1)N1CCN(CC2CC3C=CC2C3)CC1` (stereo not given) was tested, and the Potency was inconclusive: 0.355 µM [inhibitor, full curve, poor fit].
For `Cc1ccccc1Nc1nc2ccccc2s1`, the “activity change, negative = inhibition” value was inactive: 11.8%.
For `CCC(=O)NC(c1cccs1)c1cc([N+](=O)[O-])c2cccnc2c1OC` (stereo not given), the Potency was inconclusive: 31.6 µM [inhibitor, partial curve, poor fit].
`CCOc1ccc2[nH]cc(S(=O)(=O)c3ccc(C)cc3)c(=O)c2c1` was tested, and the “activity change, negative = inhibition” value was inactive: 16.5%.
`COc1ccc(CCC(=O)N2CCC(c3n[nH]c(=O)n3-c3ccccc3)CC2)cc1` was tested, and the Potency was inconclusive: 14.1 µM [inhibitor, partial curve, poor fit].
For `CC1(C(=O)NS(=O)(=O)c2cccc(OC(F)F)c2)CCN1C(=O)COc1ccc(Cl)cc1` (stereo not given), the Potency was inconclusive: 56.2 µM [inhibitor, partial curve, poor fit].
For `COc1ccc2cc(CCNC(=O)C(C)C)c(=O)[nH]c2c1`, the Potency was inconclusive: 126 µM [inhibitor, single point].
In the case of `Nc1cc(-c2ccc(Br)cc2)nn1S(=O)(=O)c1cccc2nsnc12`, the Potency is reported as inconclusive: 25.1 µM [inhibitor, partial curve, poor fit].
With `Cc1cccc(NC(=O)CNC(=O)COC(=O)Cc2n[nH]c(=O)c3ccccc23)c1C` the Potency was inconclusive: 5.62 µM [inhibitor, full curve].
In the case of `COc1ccc(NC(=O)c2ccc3c(c2)NC(=O)CS3)cn1`, the Potency is reported as inconclusive: 17.8 µM [inhibitor, full curve].
In the case of `CCc1cc[n+](C2=C([O-])c3ccccc3C(=O)/C2=N\S(=O)(=O)c2cccs2)cc1`, the Potency is reported as inconclusive: 44.7 µM [inhibitor, partial curve, poor fit].
For `COC(=O)N1CCC(c2nn(-c3ccc(Cl)cc3)c(=O)[nH]2)CC1`, the Potency was inconclusive: 39.8 µM [inhibitor, full curve].
With `O=C1CCCC2=C1C1(CCCCC1)N=C(Nc1nc3ccccc3o1)N2` the “activity change, negative = inhibition” value was inactive: -19.5%.
For `COc1ccc2c(c1)nc1n2[C@@H](CNCc2ccc3c(c2)OCO3)COC1`, the Potency was inconclusive: 39.8 µM [inhibitor, full curve].
For `S=P(c1ccc(N2CCOCC2)cc1N1CCOCC1)(N1CCOCC1)N1CCOCC1`, the Potency was inconclusive: 89.1 µM [inhibitor, single point].
`CCNc1ncc2nc(-c3ccc(F)cc3)c(=O)n(C[C@H]3CCCO3)c2n1` was tested, and the “activity change, negative = inhibition” value was inactive: 43.4%.
In the case of `CN(C)CCCN(C(=O)COc1ccccc1)c1nc2ccc(Br)cc2s1`, the Potency is reported as inconclusive: 44.7 µM [inhibitor, partial curve, poor fit].
For `CC(=O)c1ccc(OCCCC(=O)NC2=NCCS2)cc1`, the Potency was inconclusive: 39.8 µM [inhibitor, single point].
In the case of `COc1ccc(CNC(=S)N/N=C(\C)c2ccc(OC)cc2)cc1`, the Potency is reported as inconclusive: 112 µM [inhibitor, partial curve, poor fit].
For `CCn1nc(C(C)C)cc1C(=O)N1CCCC(CO)(Cc2ccc(F)cc2F)C1` (stereo not given), the “activity change, negative = inhibition” value was inactive: -2.22%.
With `Cn1ccnc1SCC(=O)c1cc2ccccc2o1` the Potency was inconclusive: 7.94 µM [inhibitor, full curve].
In the case of `CCOC(=O)NC(CNC(=O)CSc1ccccc1)CC(C)C` (stereo not given), the Potency is reported as inconclusive: 112 µM [inhibitor, partial curve, poor fit].
In the case of `N#Cc1ccccc1NC(=O)CCc1ccsc1`, the Potency is reported as inconclusive: 31.6 µM [inhibitor, partial curve, poor fit].
With `O=C(NCCn1cccc1-c1nc(-c2ccc3c(c2)OCO3)no1)c1ccc(Cl)cc1` the Potency was active: 12.6 µM.
`O=C1CCCc2c1cc(-c1ccccc1)n2-c1ccccc1` was tested, and the “activity change, negative = inhibition” value was inactive: 11.2%.
`Cc1cc(N)n2ncc(-c3ccc(F)cc3)c2n1` was tested, and the “activity change, negative = inhibition” value was inactive: -14.2%.
`COc1nc(-c2ccccc2)ccc1-c1noc(COc2ccccc2)n1` was tested, and the Potency was inconclusive: 50.1 µM [inhibitor, partial curve, poor fit].
With `Cn1cc(CN2CCNc3cnc(Nc4ccccc4)cc3C2)cn1` the “activity change, negative = inhibition” value was inactive: 19.6% [at 176 µM].
With `CC(NCC(=O)NC1(C#N)CCCCCC1)c1ccc(Cl)cc1Cl` (stereo not given) the Potency was inconclusive: 31.6 µM [inhibitor, partial curve, poor fit].
`O=C1CSc2ccc(S(=O)(=O)Nc3cccc(Cl)c3Cl)cc2N1` was tested, and the Potency was inconclusive: 50.1 µM [inhibitor, single point].
`CCN1C(=O)[C@H]2[C@@H](c3ccc(C(F)(F)F)cc3)N[C@]3(CCCN(Cc4ccc(OC)cc4)C3=O)[C@H]2C1=O` was tested, and the Potency was inconclusive: 112 µM [inhibitor, single point].
`COc1ccc(-c2sc3cc(OC)ccc3c2-c2ccc(OCCN3CCOCC3)cc2)cc1` was tested, and the “activity change, negative = inhibition” value was inactive: -16.2%.
`CN(CC(=O)NC1(C)CCS(=O)(=O)C1)Cc1ccc(Cl)c(Cl)c1` (stereo not given) was tested, and the “activity change, negative = inhibition” value was inactive: -0.969%.
`CN(C(=O)COC(=O)/C=C/c1ccc2c(c1)OCO2)c1c(N)n(Cc2ccccc2)c(=O)[nH]c1=O` was tested, and the Potency was inconclusive: 141 µM [inhibitor, partial curve, poor fit].
For `CCN(C(=O)C(C)N1C(=O)/C(=C/c2ccco2)SC1=S)C1CCS(=O)(=O)C1` (stereo not given), the “activity change, negative = inhibition” value was inactive: -5.14%.
With `COc1cccc2c(=O)c(C(=O)NCCc3ccccc3)c[nH]c12` the “activity change, negative = inhibition” value was inactive: -10.7%.
`O=C(O)c1nnn(-c2ccc(F)cc2)c1C(F)(F)F` was tested, and the Potency was inconclusive: 89.1 µM [inhibitor, partial curve, poor fit].
